# Values of other authors as cited in patent US11761043B2, “Machine assay and analysis for selecting antihypertensive drugs” (Geneticure Inc., priority 2014, dated 2023).
# By UniProt entry, the sequences of proteins in these tests, tags left out.
# UniProt P10635, whole entry: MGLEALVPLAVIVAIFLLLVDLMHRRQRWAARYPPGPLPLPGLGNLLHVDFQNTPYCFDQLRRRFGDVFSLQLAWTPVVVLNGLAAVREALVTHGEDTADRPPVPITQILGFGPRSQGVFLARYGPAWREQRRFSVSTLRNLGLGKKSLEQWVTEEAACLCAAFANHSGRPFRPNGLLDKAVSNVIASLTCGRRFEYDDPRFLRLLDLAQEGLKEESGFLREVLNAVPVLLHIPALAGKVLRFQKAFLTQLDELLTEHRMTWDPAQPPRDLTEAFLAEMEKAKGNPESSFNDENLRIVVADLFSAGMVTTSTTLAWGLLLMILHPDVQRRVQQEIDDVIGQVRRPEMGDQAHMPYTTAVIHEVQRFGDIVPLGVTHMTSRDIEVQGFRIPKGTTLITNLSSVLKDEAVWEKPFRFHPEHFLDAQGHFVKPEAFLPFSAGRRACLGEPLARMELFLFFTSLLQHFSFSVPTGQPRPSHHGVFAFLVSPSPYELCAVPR
# Target: CYP2D6 (Homo sapiens, UniProt P10635)
# Details: in vivo
structure (smiles),measurement,value
CC(C)NCC(O)COc1ccc(CC(N)=O)cc1 (stereo not shown) [atenolol],requirement of CYP2D6 for metabolism,do not require CYP2D6 for their metabolism
